Data taken from US10689458B2 (Pfizer Inc., priority 2015, dated 2020).

Assay: general procedure: solution-phase peptide synthesis; HATU

Substance | step yield (coupling step) | step yield (late stage modification step)
N-[(9H-fluoren-9-ylmethoxy)carbonyl]-2-methylalanyl-N-[(3R,4S,5S)-3-methoxy-1-{(2S)-2-[(1R,2R)-1-methoxy-2-methyl-3-oxo-3-{[(1S)-2-phenyl-1-(1,3-thiazol-2-yl)ethyl]amino}propyl]pyrrolidin-1-yl}-5-methyl-1-oxoheptan-4-yl]-N-methyl-L-valinamide | 74% | –
2-methylalanyl-N-[(3R,4S,5S)-3-methoxy-1-{(2S)-2-[(1R,2R)-1-methoxy-2-methyl-3-oxo-3-{[(1S)-2-phenyl-1-(1,3-thiazol-2-yl)ethyl]amino}propyl]pyrrolidin-1-yl}-5-methyl-1-oxoheptan-4-yl]-N-methyl-L-valinamide | – | 75%
